{"sequences": {"note": "Sequences of proteins named here, by UniProt entry; tags and fusion partners are left off. A change or cut given only in a name is not applied to a line headed by its entry.", "UniProt P40965": "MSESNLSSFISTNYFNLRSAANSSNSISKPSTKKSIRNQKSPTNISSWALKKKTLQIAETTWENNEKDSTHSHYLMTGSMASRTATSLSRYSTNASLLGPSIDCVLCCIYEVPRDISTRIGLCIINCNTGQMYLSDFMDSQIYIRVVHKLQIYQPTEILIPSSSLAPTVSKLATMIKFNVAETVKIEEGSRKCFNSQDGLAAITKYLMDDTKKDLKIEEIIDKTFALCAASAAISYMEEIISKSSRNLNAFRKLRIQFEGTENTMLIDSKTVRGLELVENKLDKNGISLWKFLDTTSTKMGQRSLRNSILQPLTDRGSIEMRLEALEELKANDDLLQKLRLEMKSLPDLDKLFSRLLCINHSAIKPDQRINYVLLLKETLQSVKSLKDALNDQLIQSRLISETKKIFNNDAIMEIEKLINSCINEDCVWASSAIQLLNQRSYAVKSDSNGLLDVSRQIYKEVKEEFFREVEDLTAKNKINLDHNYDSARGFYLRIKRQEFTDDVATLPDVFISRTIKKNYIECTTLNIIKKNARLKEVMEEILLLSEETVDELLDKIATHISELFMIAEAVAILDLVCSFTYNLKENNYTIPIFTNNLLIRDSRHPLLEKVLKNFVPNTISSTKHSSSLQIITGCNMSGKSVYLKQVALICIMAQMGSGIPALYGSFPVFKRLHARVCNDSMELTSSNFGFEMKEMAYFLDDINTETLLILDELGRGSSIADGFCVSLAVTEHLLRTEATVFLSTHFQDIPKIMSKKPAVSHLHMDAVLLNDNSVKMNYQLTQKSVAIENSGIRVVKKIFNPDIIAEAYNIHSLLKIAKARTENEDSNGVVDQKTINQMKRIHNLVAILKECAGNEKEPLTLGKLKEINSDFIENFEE", "UniProt Q12175": "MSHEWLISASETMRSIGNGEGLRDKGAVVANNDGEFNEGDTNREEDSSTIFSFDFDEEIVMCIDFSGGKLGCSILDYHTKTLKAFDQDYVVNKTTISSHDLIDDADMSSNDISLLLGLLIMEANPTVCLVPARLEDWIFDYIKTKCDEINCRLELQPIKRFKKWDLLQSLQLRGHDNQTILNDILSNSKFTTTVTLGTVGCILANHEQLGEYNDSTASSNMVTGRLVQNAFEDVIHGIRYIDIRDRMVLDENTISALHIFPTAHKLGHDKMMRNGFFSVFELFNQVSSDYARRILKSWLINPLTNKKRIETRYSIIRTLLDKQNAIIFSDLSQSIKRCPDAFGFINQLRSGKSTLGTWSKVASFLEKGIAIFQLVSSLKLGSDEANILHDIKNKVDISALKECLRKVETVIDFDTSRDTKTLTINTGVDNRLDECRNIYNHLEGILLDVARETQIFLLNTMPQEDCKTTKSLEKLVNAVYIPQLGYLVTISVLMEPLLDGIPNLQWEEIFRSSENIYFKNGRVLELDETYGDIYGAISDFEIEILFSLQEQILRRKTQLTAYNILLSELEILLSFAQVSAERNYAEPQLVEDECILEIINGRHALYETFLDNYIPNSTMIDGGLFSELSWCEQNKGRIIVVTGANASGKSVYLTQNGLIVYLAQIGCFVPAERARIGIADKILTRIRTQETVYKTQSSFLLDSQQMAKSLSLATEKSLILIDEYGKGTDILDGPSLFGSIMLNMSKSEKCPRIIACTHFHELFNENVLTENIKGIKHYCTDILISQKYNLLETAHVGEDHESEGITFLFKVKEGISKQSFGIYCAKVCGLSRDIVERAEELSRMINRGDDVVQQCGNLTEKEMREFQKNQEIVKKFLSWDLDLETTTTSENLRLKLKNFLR"}, "source": "paper doi:10.1101/2020.02.12.946293", "molecular_target": "T1, yMlh1-yMlh3 (S. cerevisiae) (UniProt P38920+Q12083)", "T1 sequence 1": "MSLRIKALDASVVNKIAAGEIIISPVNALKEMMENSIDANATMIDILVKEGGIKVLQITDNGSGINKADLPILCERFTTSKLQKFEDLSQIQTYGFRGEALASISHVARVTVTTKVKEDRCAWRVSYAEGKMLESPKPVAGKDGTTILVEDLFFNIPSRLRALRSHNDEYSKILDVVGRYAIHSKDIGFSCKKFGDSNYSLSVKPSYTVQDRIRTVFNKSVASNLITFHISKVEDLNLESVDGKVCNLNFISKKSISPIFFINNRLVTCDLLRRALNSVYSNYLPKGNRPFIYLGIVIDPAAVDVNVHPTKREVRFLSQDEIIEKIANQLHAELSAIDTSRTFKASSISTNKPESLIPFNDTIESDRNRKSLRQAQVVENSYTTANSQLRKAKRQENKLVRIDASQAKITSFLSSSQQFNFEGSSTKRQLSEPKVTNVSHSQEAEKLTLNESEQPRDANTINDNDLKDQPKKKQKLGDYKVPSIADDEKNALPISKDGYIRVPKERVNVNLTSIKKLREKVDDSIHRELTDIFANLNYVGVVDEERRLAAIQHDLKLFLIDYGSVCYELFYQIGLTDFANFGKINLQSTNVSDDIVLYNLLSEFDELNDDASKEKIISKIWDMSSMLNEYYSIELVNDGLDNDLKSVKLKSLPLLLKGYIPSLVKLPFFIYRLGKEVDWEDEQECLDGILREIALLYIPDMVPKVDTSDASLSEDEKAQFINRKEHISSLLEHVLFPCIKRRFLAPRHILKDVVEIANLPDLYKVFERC", "T1 sequence 2": "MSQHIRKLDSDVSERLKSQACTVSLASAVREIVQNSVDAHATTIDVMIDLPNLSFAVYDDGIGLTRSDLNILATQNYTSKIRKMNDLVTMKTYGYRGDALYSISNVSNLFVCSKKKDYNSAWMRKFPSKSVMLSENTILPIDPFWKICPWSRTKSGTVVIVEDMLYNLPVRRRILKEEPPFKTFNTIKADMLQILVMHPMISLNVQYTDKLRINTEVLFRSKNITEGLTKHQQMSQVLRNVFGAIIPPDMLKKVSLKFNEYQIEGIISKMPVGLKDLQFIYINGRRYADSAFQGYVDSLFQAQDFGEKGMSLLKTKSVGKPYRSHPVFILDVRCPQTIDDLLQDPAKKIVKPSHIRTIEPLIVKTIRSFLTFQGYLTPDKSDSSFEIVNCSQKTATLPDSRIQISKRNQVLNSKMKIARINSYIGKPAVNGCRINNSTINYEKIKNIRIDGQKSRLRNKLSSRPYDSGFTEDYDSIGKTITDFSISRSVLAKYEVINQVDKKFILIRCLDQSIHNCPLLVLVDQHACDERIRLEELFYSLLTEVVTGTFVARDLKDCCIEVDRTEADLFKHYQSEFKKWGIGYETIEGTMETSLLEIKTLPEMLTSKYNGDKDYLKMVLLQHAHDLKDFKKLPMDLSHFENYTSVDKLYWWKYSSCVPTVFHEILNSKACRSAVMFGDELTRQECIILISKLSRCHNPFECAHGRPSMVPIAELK", "test": "native gel or EMSA", "note": "Results are given in words; binding and its absence hold for the method and conditions named. Some entries that bind do so weakly or less than the wild type.", "data": [{"substance": "yMsh4-yMsh5 (from UniProt P40965;Q12175) (complex)", "values": [{"measurement": "binding", "result": "binds"}]}]}
